# In the supplement of paper PMC12067093, “Discovery and optimisation of a covalent ligand for TRIM25 and its application to targeted protein ubiquitination” (Chemical Science, 2025):
# Sequences of proteins named here, by UniProt entry; tags and fusion partners are left off. A change or cut given only in a name is not applied to a line headed by its entry.
# UniProt P00492: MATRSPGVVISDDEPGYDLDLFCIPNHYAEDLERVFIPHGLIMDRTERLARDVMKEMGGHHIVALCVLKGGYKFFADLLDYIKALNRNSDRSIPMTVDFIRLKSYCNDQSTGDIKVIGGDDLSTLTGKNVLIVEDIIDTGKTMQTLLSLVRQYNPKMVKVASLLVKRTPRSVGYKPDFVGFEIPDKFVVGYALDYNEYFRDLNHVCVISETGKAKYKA
# Some of the results follow.
# Molecular target: HPRT1_P00492_66_EMGGHHIVALCVLK (UniProt P00492)
# Experiment: probe-labelled cysteine peptide fold change vs DMSO (competition) (log2 fold change); higher = less target engagement (more negative = stronger competition)
# Conditions: THP-1, incubation time: 4 h
# 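Note: competitive profiling in live THP-1 cells: cysteine peptides tagged with an iodoacetamide desthiobiotin (IA-DTB) probe, intensity after compound treatment relative to DMSO-treated cells.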
smiles,measurement,setting,value
Cc1cc(C(=O)N2CCCN(C(=O)CCl)CC2)ccc1-c1ccccc1 [compound 10],probe-labelled cysteine peptide fold change,10 µM,-0.101
same,probe-labelled cysteine peptide fold change,50 µM,0.19
